From CN117257935A
Residue numbers refer to the chain shown, from its start. No constants are given. Whether binding was seen depends on the method and setting. Some entries that bind do so weakly or less than the wild type.

Chains of the proteins cited; added tags and fusions are not shown. Residues count along the entry.
UniProt Q08722, residues 19-139: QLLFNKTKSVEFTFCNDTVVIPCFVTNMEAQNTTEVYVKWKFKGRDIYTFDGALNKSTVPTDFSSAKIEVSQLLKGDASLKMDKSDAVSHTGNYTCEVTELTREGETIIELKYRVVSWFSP

B1: 7A11H11 (antibody, human IgG4, V domains shown)
VH: QVQLVQPGAEVKKPGASVKLSCKASGSSFTSNWMNWVRQAPGQGLEWIGMIHPSDSETRLNQKFKDRATLTVDKSTSTAYMELSSPRSEDTAVYYCARGTTVVDAFAYWGQGTTVTVSS
VL: DIVMTQSPDSLAVSLGERATMNCKSSQSLLNSRTRKNYLAWYQQKPGQPPKLLIYWASTRESGVPDRFSGSGSGTDFTLTISSLQAEDVAVYYCKQSYNLRTFGGGTKLEIK
B2: 7A11H12 (antibody, human IgG4, V domains shown)
VH: B1 VH
VL: DIQMTQSPSSLSASVGDRVTMTCKSSQSLLNSRTRKNYLAWYQQKPGKAPKLLIYWASTRESGVPSRFSGSGSGTDFTLTISSLQPEDFATYYCKQSYNLRTFGGGTKLEIK
B3: 7A11H33 (antibody, human IgG4, V domains shown)
VH: B1 VH with P7S, A16S, L20V, A68V, L70I, V72A, P86L
VL: B2 VL with S32T
B4: 7A11H14 (antibody, human IgG4 S228P, kappa, V domains shown)
VH: B1 VH
VL: DIVMTQSPDSLAVSLGERATMNCKSSQSLLNTRTRKNYLAWYQQKPGQPPKLLIYWASTRESGVPDRFSGSGSGTDFTLTISSLQAEDVAVYYCKQSYNLRTFGGGTKLEIKR
B5: 7A11H42 (antibody, human IgG4, V domains shown)
VH: B1 VH with P7S, A16S, L20V, K65Q, D66G, A68V, L70I, V72A, P86L
VL: B2 VL
B6: 7A11H32 (antibody, human IgG4, V domains shown)
VH: B1 VH with P7S, A16S, L20V, A68V, L70I, V72A, P86L
VL: B2 VL
B7: 7A11H35 (antibody, human IgG4, V domains shown)
VH: B1 VH with P7S, A16S, L20V, A68V, L70I, V72A, P86L
VL: EIVMTQSPPTLSLSPGERVTMSCKSSQSLLNSRTRKNYLAWYQQKPGQAPRLLIYWASTRESGIPARFSGSGSGTDFTLTISSLQPEDFAVYYCKQSYNLRTFGGGTKLEIK
B8: 7A11H34 (antibody, human IgG4, V domains shown)
VH: B1 VH with P7S, A16S, L20V, A68V, L70I, V72A, P86L
VL: B1 VL with S32T
B9: 7A11H15 (antibody, human IgG4, V domains shown)
VH: B1 VH
VL: B7 VL
B10: 7A11H22 (antibody, human IgG4, V domains shown)
VH: B1 VH with P7S, L20V, P86L
VL: B2 VL
B11: 7A11H52 (antibody, human IgG4, V domains shown)
VH: QVQLVQSGAEVKKPGSSVKVSCKASGGTFTSNWMNWVRQAPGQGLEWIGMIHPSDSETRLNQKFQGRVTITADKSTSTAYMELSSLRSEDTAVYYCARGTTVVDAFAYWGQGTTVTVSS
VL: B2 VL
B12: 7A11H55 (antibody, human IgG4, V domains shown)
VH: B11 VH
VL: B7 VL

Target: 猴CD47 on CHO-cynoCD47 cells (猴 (cyno))
Assay: flow cytometry on CHO-cynoCD47 cells

binding, binds:
B1
B2
B3
B4
B5
B6
B7
B8
B9
B10
B11
B12

Target: 人CD47(hCD47) antigen (human) (UniProt Q08722)
Assay: BLI (ForteBio)

binding, binds:
B1
B2
B3
B4
B5
B7
B9
B10
